Measured values reported in publication doi:10.1101/736611.
No constants are given. Whether binding was seen depends on the method and setting. Binding seen in cells or lysates may run through a third protein. Some results given as binding are weak or reduced against the parent protein; the word gives no strength.

Sequences of proteins named here, by UniProt entry; tags and fusion partners are left off. A change or cut given only in a name is not applied to a line headed by its entry.
UniProt P21728: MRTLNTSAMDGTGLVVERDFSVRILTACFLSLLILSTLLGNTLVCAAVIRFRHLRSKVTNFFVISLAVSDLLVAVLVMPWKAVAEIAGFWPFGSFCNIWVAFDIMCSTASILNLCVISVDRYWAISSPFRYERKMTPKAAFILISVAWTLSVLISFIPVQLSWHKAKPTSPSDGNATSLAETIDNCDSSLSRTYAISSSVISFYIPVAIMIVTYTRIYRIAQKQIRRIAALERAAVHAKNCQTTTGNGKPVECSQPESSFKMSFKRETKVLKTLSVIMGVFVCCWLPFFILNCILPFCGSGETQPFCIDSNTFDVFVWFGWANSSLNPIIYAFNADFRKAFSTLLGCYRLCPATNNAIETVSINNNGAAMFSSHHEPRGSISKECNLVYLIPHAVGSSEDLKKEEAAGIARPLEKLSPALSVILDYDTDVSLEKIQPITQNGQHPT
UniProt P21918: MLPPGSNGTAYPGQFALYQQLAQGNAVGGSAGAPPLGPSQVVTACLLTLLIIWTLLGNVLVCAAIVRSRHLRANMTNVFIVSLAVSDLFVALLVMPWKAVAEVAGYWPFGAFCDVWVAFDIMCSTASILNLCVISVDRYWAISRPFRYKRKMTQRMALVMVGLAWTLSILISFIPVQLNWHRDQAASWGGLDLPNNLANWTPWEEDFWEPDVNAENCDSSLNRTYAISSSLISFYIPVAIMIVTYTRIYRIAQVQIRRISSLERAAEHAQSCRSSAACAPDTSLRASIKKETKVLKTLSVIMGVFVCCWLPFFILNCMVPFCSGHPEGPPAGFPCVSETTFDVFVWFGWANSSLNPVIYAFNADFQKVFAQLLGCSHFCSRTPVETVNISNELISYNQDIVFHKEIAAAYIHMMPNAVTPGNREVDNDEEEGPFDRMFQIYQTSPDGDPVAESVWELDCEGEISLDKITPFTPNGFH

Key:
[1] = biological target: dopamine D1 receptor (human (endogenous in hRPTCs)) (UniProt P21728); experiment: co-IP
[2] = biological target: dopamine D5 receptor (human (endogenous in hRPTCs)) (UniProt P21918); experiment: co-IP
[3] = biological target: D1R fused to the N-terminal portion of EYFP (pBiFC-DRD1-YN155) (human) (UniProt P21728); experiment: split reporter

In the case of “dopamine D5 receptor (from UniProt P21918 1-477)”, the binding [1] is reported as “binds”.
In the case of “dopamine D1 receptor (from UniProt P21728 1-446)”, the binding [2] is reported as “binds”.
In the case of “D5R fused to the C-terminal portion of EYFP (pBiFC-DRD5-YC155) (from UniProt P21918 1-477) (receptor)”, the binding [3] is reported as “binds”.
